Laboratory results published in US20210196827A1, “FUNCTIONAL NUCLEIC ACID HAVING NUCLEOSIDE ANALOG DRUG INTEGRATED INTO SKELETON, DERIVATIVE AND USE THEREOF” (SHANGHAI JIAOTONG UNIVERSITY, priority 2018, published 2021).
At least one structure is not confirmed: it was looked up by name or label, or the drawing left a doubt.

Test system: Bcl-2 protein
Experiment: western blot of Bcl-2 protein expression in drug-resistant BEL-7402 cells
Type: cell-based
Details: incubated 10 hours then cultured 48 hours, equivalent concentration of F 10 μM, compared with blank control, FIG. 4 / FIG. 18

Compound: O=c1[nH]c(=O)n([C@H]2C[C@H](O)[C@@H](CO)O2)cc1F [F, fluorouridine]
- expression amount of Bcl-2 protein: no significant difference
